Structures can show the parent of a compound that is named as a salt. The list shows a part of the results. Repeats in this data set agree poorly, so a single value says little.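 FDA-approved drugs were each paired with colistin at one-eighth its MIC and screened against a multidrug-resistant, mcr-1-positive clinical E. coli isolate, with OD600 read after 24 h. Drug-free bacteria served as growth control, plain broth as blank. Combinations were active if OD600 dropped below 0.2.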
Test system: Escherichia coli 42 (mcr-1-positive clinical isolate)
Assay: OD600 after 24 h growth with compound plus colistin (absorbance units (OD600)); higher = more bacterial growth (less inhibition)
Conditions: first compound 25 µM; colistin concentration 0.5 ug/mL; incubation time 24 h; 37 °C

OD600, inactive:
CC(C(=O)O)c1cccc(C(=O)c2ccccc2)c1 (centres undefined) [Ketoprofen] + CCC(C)CCCC(=O)N[C@@H](CCN)C(=O)N[C@H](C(=O)N[C@@H](CCN)C(=O)N[C@H]1CCNC(=O)[C@H]([C@@H](C)O)NC(=O)[C@H](CCN)NC(=O)[C@H](CCN)NC(=O)[C@H](CC(C)C)NC(=O)[C@@H](CC(C)C)NC(=O)[C@H](CCN)NC1=O)[C@@H](C)O [colistin] 1.09
CNC(=O)c1ccc(N2C(=S)N(c3ccc(C#N)c(C(F)(F)F)c3)C(=O)C2(C)C)cc1F [Enzalutamide] + CCC(C)CCCC(=O)N[C@@H](CCN)C(=O)N[C@H](C(=O)N[C@@H](CCN)C(=O)N[C@H]1CCNC(=O)[C@H]([C@@H](C)O)NC(=O)[C@H](CCN)NC(=O)[C@H](CCN)NC(=O)[C@H](CC(C)C)NC(=O)[C@@H](CC(C)C)NC(=O)[C@H](CCN)NC1=O)[C@@H](C)O [colistin] 0.809
CC1=CC(=O)c2ccccc2C1=O [Menadione] + CCC(C)CCCC(=O)N[C@@H](CCN)C(=O)N[C@H](C(=O)N[C@@H](CCN)C(=O)N[C@H]1CCNC(=O)[C@H]([C@@H](C)O)NC(=O)[C@H](CCN)NC(=O)[C@H](CCN)NC(=O)[C@H](CC(C)C)NC(=O)[C@@H](CC(C)C)NC(=O)[C@H](CCN)NC1=O)[C@@H](C)O [colistin] 0.831
CC(=O)O[C@@]12CO[C@@H]1C[C@H](O)[C@@]1(C)C(=O)[C@H](O)C3=C(C)[C@@H](OC(=O)[C@H](O)[C@@H](NC(=O)OC(C)(C)C)c4ccccc4)C[C@@](O)([C@@H](OC(=O)c4ccccc4)[C@H]21)C3(C)C [Docetaxel trihydrate] + CCC(C)CCCC(=O)N[C@@H](CCN)C(=O)N[C@H](C(=O)N[C@@H](CCN)C(=O)N[C@H]1CCNC(=O)[C@H]([C@@H](C)O)NC(=O)[C@H](CCN)NC(=O)[C@H](CCN)NC(=O)[C@H](CC(C)C)NC(=O)[C@@H](CC(C)C)NC(=O)[C@H](CCN)NC1=O)[C@@H](C)O [colistin] 1.04
CCOc1nc2cccc(C(=O)O)c2n1Cc1ccc(-c2ccccc2-c2nnn[nH]2)cc1 [Candesartan] + CCC(C)CCCC(=O)N[C@@H](CCN)C(=O)N[C@H](C(=O)N[C@@H](CCN)C(=O)N[C@H]1CCNC(=O)[C@H]([C@@H](C)O)NC(=O)[C@H](CCN)NC(=O)[C@H](CCN)NC(=O)[C@H](CC(C)C)NC(=O)[C@@H](CC(C)C)NC(=O)[C@H](CCN)NC1=O)[C@@H](C)O [colistin] 1.15
CCCSc1ccc2[nH]c(NC(=O)OC)nc2c1 [Albendazole] + CCC(C)CCCC(=O)N[C@@H](CCN)C(=O)N[C@H](C(=O)N[C@@H](CCN)C(=O)N[C@H]1CCNC(=O)[C@H]([C@@H](C)O)NC(=O)[C@H](CCN)NC(=O)[C@H](CCN)NC(=O)[C@H](CC(C)C)NC(=O)[C@@H](CC(C)C)NC(=O)[C@H](CCN)NC1=O)[C@@H](C)O [colistin] 0.626
CC1(C)S[C@@H]2[C@H](NC(=O)C(C(=O)O)c3ccccc3)C(=O)N2[C@H]1C(=O)O (some centres undefined) [Carbenicillin disodium] + CCC(C)CCCC(=O)N[C@@H](CCN)C(=O)N[C@H](C(=O)N[C@@H](CCN)C(=O)N[C@H]1CCNC(=O)[C@H]([C@@H](C)O)NC(=O)[C@H](CCN)NC(=O)[C@H](CCN)NC(=O)[C@H](CC(C)C)NC(=O)[C@@H](CC(C)C)NC(=O)[C@H](CCN)NC1=O)[C@@H](C)O [colistin] 1.12
Cc1onc(-c2ccccc2Cl)c1C(=O)N[C@@H]1C(=O)N2[C@@H]1SC(C)(C)[C@@H]2C(=O)O [Cloxacillin sodium monohydrate] + CCC(C)CCCC(=O)N[C@@H](CCN)C(=O)N[C@H](C(=O)N[C@@H](CCN)C(=O)N[C@H]1CCNC(=O)[C@H]([C@@H](C)O)NC(=O)[C@H](CCN)NC(=O)[C@H](CCN)NC(=O)[C@H](CC(C)C)NC(=O)[C@@H](CC(C)C)NC(=O)[C@H](CCN)NC1=O)[C@@H](C)O [colistin] 0.82
COc1cc(Cc2cnc(N)nc2N)cc(OC)c1OC [Trimethoprim] + CCC(C)CCCC(=O)N[C@@H](CCN)C(=O)N[C@H](C(=O)N[C@@H](CCN)C(=O)N[C@H]1CCNC(=O)[C@H]([C@@H](C)O)NC(=O)[C@H](CCN)NC(=O)[C@H](CCN)NC(=O)[C@H](CC(C)C)NC(=O)[C@@H](CC(C)C)NC(=O)[C@H](CCN)NC1=O)[C@@H](C)O [colistin] 1.18
Nc1ccn([C@@H]2O[C@H](CO)[C@@H](O)[C@@H]2O)c(=O)n1 [Cytarabine] + CCC(C)CCCC(=O)N[C@@H](CCN)C(=O)N[C@H](C(=O)N[C@@H](CCN)C(=O)N[C@H]1CCNC(=O)[C@H]([C@@H](C)O)NC(=O)[C@H](CCN)NC(=O)[C@H](CCN)NC(=O)[C@H](CC(C)C)NC(=O)[C@@H](CC(C)C)NC(=O)[C@H](CCN)NC1=O)[C@@H](C)O [colistin] 0.99
CCC(=O)O[C@]1(C(=O)CCl)[C@@H](C)C[C@H]2[C@@H]3CCC4=CC(=O)C=C[C@]4(C)[C@@]3(F)[C@@H](O)C[C@@]21C [Clobetasol propionate] + CCC(C)CCCC(=O)N[C@@H](CCN)C(=O)N[C@H](C(=O)N[C@@H](CCN)C(=O)N[C@H]1CCNC(=O)[C@H]([C@@H](C)O)NC(=O)[C@H](CCN)NC(=O)[C@H](CCN)NC(=O)[C@H](CC(C)C)NC(=O)[C@@H](CC(C)C)NC(=O)[C@H](CCN)NC1=O)[C@@H](C)O [colistin] 1.08
CCN(CC)C(=O)[C@]1(c2ccccc2)C[C@@H]1CN [Dextromilnacipran] + CCC(C)CCCC(=O)N[C@@H](CCN)C(=O)N[C@H](C(=O)N[C@@H](CCN)C(=O)N[C@H]1CCNC(=O)[C@H]([C@@H](C)O)NC(=O)[C@H](CCN)NC(=O)[C@H](CCN)NC(=O)[C@H](CC(C)C)NC(=O)[C@@H](CC(C)C)NC(=O)[C@H](CCN)NC1=O)[C@@H](C)O [colistin] 1.08
CN(C)c1nc(N(C)C)nc(N(C)C)n1 [Altretamine] + CCC(C)CCCC(=O)N[C@@H](CCN)C(=O)N[C@H](C(=O)N[C@@H](CCN)C(=O)N[C@H]1CCNC(=O)[C@H]([C@@H](C)O)NC(=O)[C@H](CCN)NC(=O)[C@H](CCN)NC(=O)[C@H](CC(C)C)NC(=O)[C@@H](CC(C)C)NC(=O)[C@H](CCN)NC1=O)[C@@H](C)O [colistin] 1.15
CC(=O)OCC(=O)[C@@]1(O)CC[C@H]2[C@@H]3CCC4=CC(=O)CC[C@]4(C)[C@@]3(F)[C@@H](O)C[C@@]21C [Fludrocortisone acetate] + CCC(C)CCCC(=O)N[C@@H](CCN)C(=O)N[C@H](C(=O)N[C@@H](CCN)C(=O)N[C@H]1CCNC(=O)[C@H]([C@@H](C)O)NC(=O)[C@H](CCN)NC(=O)[C@H](CCN)NC(=O)[C@H](CC(C)C)NC(=O)[C@@H](CC(C)C)NC(=O)[C@H](CCN)NC1=O)[C@@H](C)O [colistin] 0.979
CCOc1ccccc1OCCN[C@H](C)Cc1ccc(OC)c(S(N)(=O)=O)c1 [Tamsulosin hydrochloride] + CCC(C)CCCC(=O)N[C@@H](CCN)C(=O)N[C@H](C(=O)N[C@@H](CCN)C(=O)N[C@H]1CCNC(=O)[C@H]([C@@H](C)O)NC(=O)[C@H](CCN)NC(=O)[C@H](CCN)NC(=O)[C@H](CC(C)C)NC(=O)[C@@H](CC(C)C)NC(=O)[C@H](CCN)NC1=O)[C@@H](C)O [colistin] 1.09
OCCN1CCN(CCCN2c3ccccc3Sc3ccc(Cl)cc32)CC1 [Perphenazine] + CCC(C)CCCC(=O)N[C@@H](CCN)C(=O)N[C@H](C(=O)N[C@@H](CCN)C(=O)N[C@H]1CCNC(=O)[C@H]([C@@H](C)O)NC(=O)[C@H](CCN)NC(=O)[C@H](CCN)NC(=O)[C@H](CC(C)C)NC(=O)[C@@H](CC(C)C)NC(=O)[C@H](CCN)NC1=O)[C@@H](C)O [colistin] 0.867
CC(C)[C@H]1CC[C@H](C(=O)N[C@H](Cc2ccccc2)C(=O)O)CC1 [Nateglinide] + CCC(C)CCCC(=O)N[C@@H](CCN)C(=O)N[C@H](C(=O)N[C@@H](CCN)C(=O)N[C@H]1CCNC(=O)[C@H]([C@@H](C)O)NC(=O)[C@H](CCN)NC(=O)[C@H](CCN)NC(=O)[C@H](CC(C)C)NC(=O)[C@@H](CC(C)C)NC(=O)[C@H](CCN)NC1=O)[C@@H](C)O [colistin] 1.14
CCCCc1nc(Cl)c(CO)n1Cc1ccc(-c2ccccc2-c2nnn[nH]2)cc1 [Losartan] + CCC(C)CCCC(=O)N[C@@H](CCN)C(=O)N[C@H](C(=O)N[C@@H](CCN)C(=O)N[C@H]1CCNC(=O)[C@H]([C@@H](C)O)NC(=O)[C@H](CCN)NC(=O)[C@H](CCN)NC(=O)[C@H](CC(C)C)NC(=O)[C@@H](CC(C)C)NC(=O)[C@H](CCN)NC1=O)[C@@H](C)O [colistin] 0.854
O=C(O)c1cc(/N=N/c2ccc(O)c(C(=O)O)c2)ccc1O [Olsalazine disodium] + CCC(C)CCCC(=O)N[C@@H](CCN)C(=O)N[C@H](C(=O)N[C@@H](CCN)C(=O)N[C@H]1CCNC(=O)[C@H]([C@@H](C)O)NC(=O)[C@H](CCN)NC(=O)[C@H](CCN)NC(=O)[C@H](CC(C)C)NC(=O)[C@@H](CC(C)C)NC(=O)[C@H](CCN)NC1=O)[C@@H](C)O [colistin] 1.07

Nothing new here: an excerpt of the list.
OD600, inactive:
CNC(=O)c1ccc(N2C(=S)N(c3ccc(C#N)c(C(F)(F)F)c3)C(=O)C2(C)C)cc1F [Enzalutamide] + CCC(C)CCCC(=O)N[C@@H](CCN)C(=O)N[C@H](C(=O)N[C@@H](CCN)C(=O)N[C@H]1CCNC(=O)[C@H]([C@@H](C)O)NC(=O)[C@H](CCN)NC(=O)[C@H](CCN)NC(=O)[C@H](CC(C)C)NC(=O)[C@@H](CC(C)C)NC(=O)[C@H](CCN)NC1=O)[C@@H](C)O [colistin] 0.809
CC1=CC(=O)c2ccccc2C1=O [Menadione] + CCC(C)CCCC(=O)N[C@@H](CCN)C(=O)N[C@H](C(=O)N[C@@H](CCN)C(=O)N[C@H]1CCNC(=O)[C@H]([C@@H](C)O)NC(=O)[C@H](CCN)NC(=O)[C@H](CCN)NC(=O)[C@H](CC(C)C)NC(=O)[C@@H](CC(C)C)NC(=O)[C@H](CCN)NC1=O)[C@@H](C)O [colistin] 0.831

Reference: the supplement of paper PMC11546906
